Laboratory results as given in PubChem BioAssay AID1347075 (National Center for Advancing Translational Sciences (NCATS), 2019).
Out of some 400,000 compounds screened, about 5,500 (1.4%) were called active. Inconclusive results, whose numbers are uncertain, are shown with a selection of clear calls. Calls come from the whole dose curve; as a rule, active = well fitted cell-killing curve with a large enough effect; inconclusive = small, poorly fitted or top-dose-only effect, or effect the other way; inactive = flat fitted curve, though single readings scatter. Where the call is inconclusive, the potency comes from a doubtful curve fit.

Assay: qHTS assay for MDR1-selective chemotherapeutics: Primary screen using the parental adenocarcinoma cell KB-3-1; note: nearly all actives have a fitted effect of over 60% in size
Settings: KB-3-1 viability, CellTiter-Glo ATP luminescence, 72 h; activity change, negative = cytotoxic: at 46.1 µM (top of the series)
Procedure, shortened: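 Luminescent ATP read-out (CellTiter-Glo) measures survival of drug-naive KB-3-1 cells after 72 h compound exposure at 37 °C. Titration series was screened from lowest to highest concentration, with DMSO vehicle plates as background controls.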
% is set by controls: 0 for no effect and ±100 for the full control effect; potency is the fitted concentration of half-maximal effect.

Row | SMILES | Potency | activity change, negative = cytotoxic
1 | CCC1(C)Cc2c(sc3nc(SC)nc(N)c23)CO1 (configuration not stated) | inconclusive: 29.1 µM [cytotoxic, single point] | –
2 | COc1ccc2c(c1)CCc1c(C(=O)Nc3c(C)nn(Cc4ccc(C)cc4)c3C)noc1-2 | inconclusive: 18.4 µM [cytotoxic, single point] | –
3 | Cc1cccc(N(C)C(=O)c2cc(S(=O)(=O)N3CCc4ccccc43)cn2C)c1 | inconclusive: 23.1 µM [cytotoxic, single point] | –
4 | Cn1nnnc1Sc1ncnc2scc(-c3cccc(C(F)(F)F)c3)c12 | inconclusive: 13 µM [cytotoxic, partial curve, poor fit] | –
5 | CC(C)(C)n1nc2c(c1NC(=O)COc1ccc(Cl)cc1)CS(=O)(=O)C2 | inconclusive: 29.1 µM [rising, single point] | –
6 | CCOc1cccc2sc(NC(=O)CCS(=O)(=O)c3ccccc3)nc12 | inconclusive: 32.6 µM [cytotoxic, single point] | –
7 | Cc1ccc(/C=C2/SC(=S)N(CC(=O)Nc3ncc(Cc4ccc(C)cc4)s3)C2=O)cc1 | inconclusive: 29.1 µM [cytotoxic, single point] | –
8 | C=CCN([C@@H](CC(C)C)C(=O)OC)S(=O)(=O)N(CC=C)[C@@H](CC(C)C)C(=O)OC | inconclusive: 23.1 µM [cytotoxic, single point] | –
9 | O=C(NC(c1ccc(-c2ccccc2)cc1)c1cnccn1)C1CCN(CCN2C(=O)c3ccccc3C2=O)CC1 (configuration not stated) | inactive | –
10 | O=C(C1CCCN(S(=O)(=O)c2cnc[nH]2)C1)N1CCN(c2ccc(Cl)cc2)CC1 (configuration not stated) | inactive | –
11 | Cc1ccc(S(=O)(=O)NN=C2CCC(C(C)(C)C)CC2)cc1[N+](=O)[O-] (configuration not stated) | inactive | –
12 | CC(=O)c1c(C)[nH]c(C(=O)Nc2cccc(S(=O)(=O)N(C)c3ccccc3)c2)c1C | inconclusive: 18.4 µM [cytotoxic, single point] | –
13 | CCOC(=O)c1ccc(NC(=O)Cn2cc(C(=O)c3ccc(Cl)cc3)c(=O)c3ccc(C)nc32)cc1 | inconclusive: 23.1 µM [cytotoxic, single point] | –
14 | Cc1ccc(NC(=S)Nc2ccc(S(=O)(=O)N3CCOCC3)cc2)cc1S(=O)(=O)N1CCOCC1 | – | inconclusive: -34% [cytotoxic]
15 | CC[C@@]1(O)C(=O)OCc2c1cc1n(c2=O)Cc2cc3c(N)cccc3nc2-1 | inconclusive: 5.17 µM [cytotoxic, full curve, poor fit] | –
16 | Cc1cccc(NC(=O)c2cc(S(=O)(=O)N3CCC4(CC3)OCCO4)ccc2F)c1 | inconclusive: 8.2 µM [rising, partial curve] | –
17 | CN(Cc1ccc(C(C)(C)C)cc1)C(=O)C1CCN(C(=O)Nc2ccccc2)CC1 | inconclusive: 16.4 µM [cytotoxic, single point] | –
18 | CC(Nc1nc(C(F)(F)F)nc2ccccc12)c1cccs1 (configuration not stated) | inconclusive: 13 µM [cytotoxic, partial curve, poor fit] | –
19 | CN(CCNC(=O)c1c[nH]c2c1ccc1ccccc12)CCNC(=O)c1c[nH]c2c1ccc1ccccc12 | inconclusive: 25.9 µM [cytotoxic, single point] | –
20 | C(=N/Nc1nc(-c2ccccc2)cc(-c2ccccc2)n1)/c1cccnc1 | inconclusive: 29.1 µM [cytotoxic, single point] | –
21 | Cc1ccccc1C(=O)N1CCC(C(=O)Nc2ccc(S(=O)(=O)N3CCOCC3)cc2)CC1 | inconclusive: 29.1 µM [cytotoxic, single point] | –
22 | C/C(NCCc1ccccc1)=C1/CCOC1=O | inactive | –
23 | COc1cc(C(=O)/C=C/Nc2ccc(NC(C)=O)cc2)cc(OC)c1OC | inactive | –

Row | SMILES | Potency | activity change, negative = cytotoxic
24 | CC(C)(C)c1ccc(C2C3=C(CCCC3=O)NC3=C2C(=O)c2ccccc23)cc1 (configuration not stated) | inconclusive: 10.3 µM [cytotoxic, partial curve] | –
25 | COc1ccccc1CNC(=O)C(C)n1cccc1C(=O)c1ccccc1 (configuration not stated) | inconclusive: 18.4 µM [cytotoxic, single point] | –
26 | CN(C)N1C(=O)CC(N2CCCCC2)C1=O (configuration not stated) | inconclusive: 29.1 µM [cytotoxic, single point] | –
27 | O=C(NNC(=O)c1c(O)c2ccccc2[nH]c1=O)c1ccccc1 | inconclusive: 29.1 µM [cytotoxic, single point] | –
28 | COc1ccc(CN(CC(=O)NC2CCCC2)C(=O)c2ccc(-c3ccccc3)[nH]2)cc1 | inconclusive: 29.1 µM [cytotoxic, single point] | –
29 | CC(C)(C)c1ccc(-c2nnc(SCC(=O)Nc3sc4c(c3C#N)CCCC4)o2)cc1 | inactive | –
30 | Cc1ccc(S(=O)(=O)N2CCCC(C(=O)N3CCN(c4ccccc4)CC3)C2)cc1 (configuration not stated) | inconclusive: 32.6 µM [cytotoxic, single point] | –
31 | CCn1ncc(CN2CCC(n3nccc3NC(=O)c3ccccc3Cl)CC2)c1C | inactive | –
32 | CC(C)c1ccc(Oc2cccc3c2S(=O)(=O)N(C2CCCC2)CC(COCc2ccccc2)O3)cc1 (configuration not stated) | inactive | –
33 | CCCCN(C(C)=O)c1c(CC)nc2ccc(C(=O)Nc3cccc(OCC(=O)N(C)C)c3)cn12 | inactive | –
34 | Cc1cccc(NC(=S)N=Nc2c(O)n(C)c3ccc(S(=O)(=O)N4CCOCC4)cc23)c1 | inconclusive: 29.1 µM [cytotoxic, single point] | –
35 | Cc1ccc(S(=O)(=O)N/N=C2/CC(c3ccccc3)Oc3ccccc32)cc1[N+](=O)[O-] (configuration not stated) | inactive | –
36 | CCc1ccc(NC(=S)N(Cc2ccccc2)Cc2ccccn2)cc1 | inactive | –
37 | Cc1cccc(-n2[nH]c(C)c(C=Nc3ccc4[nH]c(=O)[nH]c4c3)c2=O)c1 | inactive | –
38 | CCn1cc2nc(SCc3ccccc3F)n(Cc3ccc(C)cc3)c(=O)c2n1 | inactive | –
39 | CCN(Cc1ccccc1)C(=O)CN1C(=O)COc2ccc(S(=O)(=O)N3CCCCCC3)cc21 | inconclusive: 32.6 µM [cytotoxic, partial curve, poor fit] | –
40 | COc1ccc(OC)c(NS(=O)(=O)c2ccc(N3CCCC3=O)cc2)c1 | active: 0.82 µM | –
41 | Cc1ccccc1-n1c(SCC(=O)c2c(N)n(C)c(=O)n(C)c2=O)nc2sc3c(c2c1=O)CCCC3 | inconclusive: 32.6 µM [cytotoxic, single point] | –
42 | CC(OC(=O)CCc1ccccc1)C(=O)Nc1ccc(Cl)cn1 (configuration not stated) | inactive | –
43 | C=CCCC1CN(CCCC)S(=O)(=O)c2c(F)cccc2O1 (configuration not stated) | inactive | –
44 | COc1ccc(C(=O)c2cc([N+](=O)[O-])ccc2N2CCOCC2)cc1 | active: 1.84 µM | –
45 | CC(=O)NC1=NN(C(C)=O)C(C)(c2cccs2)S1 (configuration not stated) | inconclusive: 29.1 µM [cytotoxic, single point] | –
46 | COc1cc2c(NC3CCN(C)CC3)nc(N3CCCCC3)nc2cc1OCCOCCN1CCCC1 | inconclusive: 23.1 µM [cytotoxic, single point] | –

Structural class: those above containing two or more sulfur atoms
Row | SMILES | Potency | activity change, negative = cytotoxic
1 | CCC1(C)Cc2c(sc3nc(SC)nc(N)c23)CO1 (configuration not stated) | inconclusive: 29.1 µM [cytotoxic, single point] | –
4 | Cn1nnnc1Sc1ncnc2scc(-c3cccc(C(F)(F)F)c3)c12 | inconclusive: 13 µM [cytotoxic, partial curve, poor fit] | –
6 | CCOc1cccc2sc(NC(=O)CCS(=O)(=O)c3ccccc3)nc12 | inconclusive: 32.6 µM [cytotoxic, single point] | –
7 | Cc1ccc(/C=C2/SC(=S)N(CC(=O)Nc3ncc(Cc4ccc(C)cc4)s3)C2=O)cc1 | inconclusive: 29.1 µM [cytotoxic, single point] | –
14 | Cc1ccc(NC(=S)Nc2ccc(S(=O)(=O)N3CCOCC3)cc2)cc1S(=O)(=O)N1CCOCC1 | – | inconclusive: -34% [cytotoxic]
29 | CC(C)(C)c1ccc(-c2nnc(SCC(=O)Nc3sc4c(c3C#N)CCCC4)o2)cc1 | inactive | –
34 | Cc1cccc(NC(=S)N=Nc2c(O)n(C)c3ccc(S(=O)(=O)N4CCOCC4)cc23)c1 | inconclusive: 29.1 µM [cytotoxic, single point] | –
41 | Cc1ccccc1-n1c(SCC(=O)c2c(N)n(C)c(=O)n(C)c2=O)nc2sc3c(c2c1=O)CCCC3 | inconclusive: 32.6 µM [cytotoxic, single point] | –
45 | CC(=O)NC1=NN(C(C)=O)C(C)(c2cccs2)S1 (configuration not stated) | inconclusive: 29.1 µM [cytotoxic, single point] | –

2 of the compounds above, as tab-separated lines.
Row	SMILES	Potency	activity change, negative = cytotoxic
23	COc1cc(C(=O)/C=C/Nc2ccc(NC(C)=O)cc2)cc(OC)c1OC	inactive	–
28	COc1ccc(CN(CC(=O)NC2CCCC2)C(=O)c2ccc(-c3ccccc3)[nH]2)cc1	inconclusive: 29.1 µM [cytotoxic, single point]	–

Later entries:

Row | SMILES | Potency | activity change, negative = cytotoxic
47 | CC(=O)c1cccc(OC(=O)Oc2cccc(C(C)=O)c2)c1 | inactive | –
48 | CCCc1nc2ccccc2c(C(=O)N(CC)CC(=O)NCc2cccs2)c1CC | inactive | –
49 | CCN(c1ccc(NC(=O)COC(=O)C2CCN(c3ccc(C(F)(F)F)cn3)CC2)cc1)C(C)C | inactive | –
50 | COCc1ccc(CN2CCc3c([nH]c4ccccc34)C2C(C)(C)C)o1 (configuration not stated) | inconclusive: 20.6 µM [cytotoxic, single point] | –
51 | COc1ccc(C[C@@H]2CN3C(=NC[C@@H]3Cc3ccc(O)cc3)N2C[C@H](C)NC(=O)CCC2CCCCC2)cc1 | inactive | –
52 | Cc1cc(C)c2cc(CN(Cc3ccco3)C(=O)NCc3ccccc3)c(=O)[nH]c2c1 | inconclusive: 14.6 µM [cytotoxic, single point] | –
53 | O=C(CSc1nnc(-c2ccncc2)n1Cc1ccco1)N1c2ccccc2Sc2ccc(Cl)cc21 | inconclusive: 16.4 µM [cytotoxic, single point] | –
54 | Oc1cc2cc(-c3csc(-c4ccc(F)cc4)n3)cc3c2n1CCC3 | inconclusive: 0.517 µM [rising, full curve, poor fit] | –
55 | CCCn1cc(S(=O)(=O)c2ccccc2)c(=O)c2cc(CC)ccc21 | – | inconclusive: -36%
56 | CN1CCN(c2ccccc2NS(=O)(=O)c2ccc3c(c2)CCN3C(=O)C2CCC2)CC1 | inconclusive: 18.4 µM [cytotoxic, single point] | –
57 | CCC(CC)C(=O)c1c[nH]c(C(=O)NCc2ccco2)c1 | inconclusive: 18.4 µM [rising, single point] | –
58 | C=CCn1c(SCc2nc3ccccc3c(=O)[nH]2)nc2ccccc2c1=O | inactive | –
59 | CCC(C(=O)NCCc1ccc(C)cc1)n1nc(C)c2c(C)n(-c3ccccc3)nc2c1=O (configuration not stated) | inactive | –
60 | Cc1cc(N2C(=O)C(O)=C(C(=O)c3cc4ccccc4o3)C2c2ccc(OC(C)C)cc2)no1 (configuration not stated) | inconclusive: 29.1 µM [cytotoxic, single point] | –
61 | CN1C=CC(=C[N+](=O)[O-])N(C)C1=O | inactive | –
62 | CC(=O)Nc1ccc(C2=NOC(C)(C)C(=O)N2Cc2cccc(C#N)c2)cc1 | inactive | –
63 | Cc1cc(C(=O)OCC(=O)N2CCN(c3ccccc3)CC2)c2ccccc2n1 | inactive | –
64 | CC1CCN(c2ncnc3c2cnn3Cc2ccc(Cl)cc2)CC1 | inactive | –
65 | CCOC(=O)C1(Cc2ccc(Cl)cc2)CCN(C(=O)c2sc(C)nc2C)CC1 | inconclusive: 20.6 µM [cytotoxic, partial curve] | –
66 | CCc1ccc(C(=O)Nc2ccc3nn(-c4ccc(C)c(Cl)c4)nc3c2)cc1 | inconclusive: 20.6 µM [cytotoxic, single point] | –
67 | O=C(CSc1nc(-c2ccc(F)cc2)[nH]c1-c1ccc(F)cc1)Nc1ccc2c(c1)OCCO2 | inconclusive: 23.1 µM [cytotoxic, partial curve, poor fit] | –
